# Data taken from patent publication US20140038203A1, “METHODS FOR DETECTING OR PREDICTING KIDNEY DISEASE” (MUSC FOUNDATION FOR RESEARCH DEVELOPMENT, priority 2012, published 2014).
# Test: RRT study: LC-MS/MS urinary proteomics, AKI after cardiac surgery, RRT vs No RRT
# Parameters: species or system human
# Settings: for Mean RRT / Mean No RRT: urine; for Mean RRT: AKI patients who required RRT (n=6); for Mean No RRT: AKI patients who did not require RRT (n=6)
# [1] = direction of urinary abundance, patients who did vs did not require RRT/dialysis
# [2] = patients who did vs did not require RRT/dialysis, read with the Up or Down column
# [3] = direction of differential abundance, patients who did vs did not require RRT/dialysis
# [4] = patients who did vs did not require RRT/dialysis
# [5] = RRT vs No RRT, positive = elevated in RRT group
Substance,Up or Down [1],Mean Fold Change [2],Up or Down [3],Mean Fold Change [4],further results
Ig kappa chain V-I region AU,Up,1.908,,,
Collagen alpha-3(VI) chain,Up,1.604,,,
Collagen alpha-1(XII) chain,,,Down,2.88,
"Complement factor D: urinary protein, Uniprot P00746",Up,,,,Mean RRT: 5.81 normalized spectral counts
Thioredoxin domain-containing protein 5,Up,,,,
Fibronectin,Up,3.1,,,
Mesothelin,Up,,,,
Ig kappa chain V-III region VG (Fragment),Up,1.187,,,
Cubilin,,,Down,1.629,
"Alpha-1-antitrypsin: urinary protein, Uniprot P01009",Up,11.11,,,Mean Fold Change [5]: 11.11; Mean No RRT: 21.55 normalized spectral counts; Mean RRT: 239.32 normalized spectral counts
Chitinase-3-like protein 1,Up,,,,
Mucin-5B,Up,,,,
Vitronectin,Up,1.072,,,
"Fatty acid-binding protein, liver",Up,41.63,,,
"Serotransferrin: urinary protein, Uniprot P02787",Up,6.502,,,Mean Fold Change [5]: 6.502; Mean No RRT: 72.61 normalized spectral counts; Mean RRT: 472.14 normalized spectral counts
"Liver-expressed antimicrobial peptide 2 (MTPFWRGVSLRPIGASCRDDSECITRLCRKRRCSLSVAQE; UniProt Q969E1 38-77, looked up)",Up,1.113,,,
Immunoglobulin J chain,Up,1.102,,,
Cathepsin L1,Up,1.345,,,
Basement membrane-specific heparan sulfate proteoglycan core protein,,,Down,1.005,
"Trefoil factor 1 (EAQTETCTVAPRERQNCGFPGVTPSQCANKGCCFDDTVRGVPWCFYPNTIDVPPEEECEF; UniProt P04155 25-84, looked up)",,,Down,1.71,
Thrombospondin-1,Up,1.823,,,
CD44 antigen,,,Down,2.25,
Pyruvate kinase isozymes M1/M2,Up,4.25,,,
Titin,,,Down,1.044,

Substance,Up or Down [1],Mean Fold Change [2],Up or Down [3],Mean Fold Change [4],further results
Ig kappa chain C region,Up,1.325,,,
Ig kappa chain V-II region TEW,,,Down,1.196,
Immunoglobulin superfamily member 8,,,Down,7.826,
"Fatty acid-binding protein, epidermal",Up,,,,
Alpha-1B-glycoprotein,Up,3.82,,,
Apolipoprotein C-III,Up,,,,
Ig kappa chain V-I region EU,Up,1.779,,,
"Fibrinogen beta chain: urinary protein, Uniprot P02675",Up,3.921,,,Mean Fold Change [5]: 3.921; Mean No RRT: 3.65 normalized spectral counts; Mean RRT: 14.29 normalized spectral counts
Tyrosine-protein kinase receptor UFO,,,Down,2.196,
Clusterin,Up,2.645,,,
Low affinity immunoglobulin gamma Fc region receptor III-A,,,Down,6.36,
V-set and immunoglobulin domain-containing protein 4,Up,,,,
Hemoglobin subunit gamma-1,Up,6.761,,,
Alpha-enolase,,,Down,1.23,
Collagen alpha-1(I) chain,Up,1.009,,,
Peptidoglycan recognition protein 1,,,Down,1.267,
Lysosomal acid phosphatase,,,Down,,
Cathepsin D,Up,1.016,,,
Ig kappa chain V-I region AG,Up,1.223,,,
"Maltase-glucoamylase, intestinal",,,Down,1.917,
Immunoglobulin lambda-like polypeptide 5,Up,1.364,,,
"Pancreatic secretory trypsin inhibitor (DSLGREAKCYNELNGCTKIYDPVCGTDGNTYPNECVLCFENRKRQTSILIQKSGPC; UniProt P00995 24-79, looked up)",Up,7.234,,,
Tyrosine-protein phosphatase non-receptor type substrate 1,Up,2.068,,,
Triosephosphate isomerase,Up,,,,

Substance,Up or Down [1],Mean Fold Change [2],Up or Down [3],Mean Fold Change [4],further results
Lysozyme C,Up,16.82,,,
Apolipoprotein D,Up,1.403,,,
"Hemopexin: urinary protein, Uniprot P02790",Up,3.79,,,Mean Fold Change [5]: 3.79; Mean No RRT: 7.94 normalized spectral counts; Mean RRT: 30.11 normalized spectral counts
Myosin-Vb,,,Down,,
Trans-Golgi network integral membrane protein 2,Up,,,,
Tumor necrosis factor receptor superfamily member 12A,Up,6.115,,,
Ig kappa chain V-III region CLL,,,Down,1.423,
Hemoglobin subunit alpha,Up,3.508,,,
Ig kappa chain V-III region HAH,,,Down,1.126,
Lysosomal alpha-glucosidase,Up,1.002,,,
Fibrinogen gamma chain,Up,3.638,,,
C-reactive protein,Up,17.78,,,
Interleukin-1 receptor antagonist protein,,,Down,1.017,
Insulin-like growth factor-binding protein 3,Up,2.077,,,
Osteopontin,,,Down,1.369,
Alpha-hemoglobin-stabilizing protein,Up,,,,
Hepatitis A virus cellular receptor 2,,,Down,2.48,
Prostate-specific antigen,Up,2.099,,,
Extracellular sulfatase Sulf-2,,,Down,3.083,
Amyloid beta A4 protein,,,Down,1.82,
Lumican,Up,2.49,,,
"Trefoil factor 3 (EEYVGLSANQCAVPAKDRVDCGYPHVTPKECNNRGCCFDSRIPGVPWCFKPLQEAECTF; UniProt Q07654 22-80, looked up)",,,Down,2.234,
